Data from PMC7862700.
Only a part is listed here, and it is no random draw. At the low end of the ranking the order means little.

Each sequence was assayed against T1, ETV2 (UniProt O00321) (assay: DAPPL (digital affinity profiling via proximity ligation, sequencing)). Details: 10 mM Tris-HCl pH 7.5, 50 mM NaCl, 1 mM DTT, 4% glycerol, room temperature, 30 min; GST-TFs on glutathione beads, 16-mer random dsDNA library, 0.1% …; high values mean tight binding; double strand, one strand shown; scale: fold enrichment (6-mer frequency, TF over GST control).
T1 sequence: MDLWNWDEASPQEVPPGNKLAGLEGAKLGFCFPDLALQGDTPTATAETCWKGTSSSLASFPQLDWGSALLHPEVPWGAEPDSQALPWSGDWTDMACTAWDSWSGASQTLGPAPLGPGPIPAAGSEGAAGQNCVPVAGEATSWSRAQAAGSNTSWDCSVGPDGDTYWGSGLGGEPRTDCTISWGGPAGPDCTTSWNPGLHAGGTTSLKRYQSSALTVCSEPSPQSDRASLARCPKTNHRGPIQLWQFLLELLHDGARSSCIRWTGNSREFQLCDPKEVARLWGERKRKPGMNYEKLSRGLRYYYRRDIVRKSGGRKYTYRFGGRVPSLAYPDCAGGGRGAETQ
For TCAACG, the binding signal was 1.18.
Work on AGGATG yielded a binding signal of 0.897.
For CTTCCA, the binding signal was 1.37.
For CAACCG, the binding signal was 1.08.
In the case of TTCACG, the binding signal is reported as 1.34.
In the case of GGGTTC, the binding signal is reported as 0.992.
With CCTTGT the binding signal was 1.03.
